Record: PubChem BioAssay AID743121 (NCATS, 2013)
Shown is one part, drawn at random, of about 26,000 reagents. Over the whole deposit, 167 (0.63%) got an active call. 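Calls are per gene from RSA p-values that are not deposited; an individual active-marked siRNA can sensitise only weakly.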 Unmarked entries are inactive. Reagents against one gene are numbered here. Further read-outs or replicates are left out here.

- Aim: 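Knock-downs that sensitise breast cancer cells to camptothecin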 (primary screen)
- Cells: MDA-MB-231 cells, a human breast cancer line
- Knock-down reagent: single siRNA against human genes, 20 nM siRNA (0.8 pmol per well)
- Duration: 120 h (drug added 48 h after transfection, read 72 h later)
- Challenge: camptothecin 20 nM (about EC30) for 72 h; vehicle 0.1% DMSO in parallel plates
- Measurement: 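Cell viability by ATP luminescence (CellTiter-Glo) as % of non-targeting siRNA wells, and the log2 ratio of viability without drug over viability with camptothecin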
- Scale: log2 vehicle/camptothecin viability: higher = stronger sensitisation to camptothecin
- Call rule: 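Each gene scored by redundant siRNA activity (RSA) over its individual siRNA ratios; a gene is called active at p < 0.001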

After knock-down of PRDM11 (PR/SET domain 11) #1, the record shows log2 vehicle/camptothecin viability 0.0644.
After knock-down of PRDM11 (PR/SET domain 11) #2 the results were log2 vehicle/camptothecin viability -0.796.
After knock-down of PRDM11 (PR/SET domain 11) #3 the results were log2 vehicle/camptothecin viability -0.463.
For PRDM11 (PR/SET domain 11) #4, the values are log2 vehicle/camptothecin viability 0.339.
After knock-down of PGAP2 (post-GPI attachment to proteins 2) #1, the screen gave log2 vehicle/camptothecin viability 0.0159.
For PGAP2 (post-GPI attachment to proteins 2) #2, the entry reads log2 vehicle/camptothecin viability -0.0908.
With knock-down of PGAP2 (post-GPI attachment to proteins 2) #3, the screen gave log2 vehicle/camptothecin viability -0.519.
Against FZD10 (frizzled class receptor 10) #1 the deposit lists log2 vehicle/camptothecin viability -0.108.
Against FZD10 (frizzled class receptor 10) #2 the deposit lists log2 vehicle/camptothecin viability -0.424.
For FZD10 (frizzled class receptor 10) #3, the values are log2 vehicle/camptothecin viability -0.00209.
FZD10 (frizzled class receptor 10) #4 showed log2 vehicle/camptothecin viability -0.372.
Knock-down of AK7 (adenylate kinase 7) #1 resulted in: log2 vehicle/camptothecin viability 0.0316.
AK7 (adenylate kinase 7) #2 gave log2 vehicle/camptothecin viability -0.156.
For AK7 (adenylate kinase 7) #3, the values are log2 vehicle/camptothecin viability 0.0356.
Silencing of AK7 (adenylate kinase 7) #4 came out at: log2 vehicle/camptothecin viability -0.042.
VPS41 (VPS41 subunit of HOPS complex) #1 scored log2 vehicle/camptothecin viability 0.154.
After knock-down of VPS41 (VPS41 subunit of HOPS complex) #2 the results were log2 vehicle/camptothecin viability 0.724.
Knock-down of VPS41 (VPS41 subunit of HOPS complex) #3 came out at: log2 vehicle/camptothecin viability 0.623.
VPS41 (VPS41 subunit of HOPS complex) #4 showed log2 vehicle/camptothecin viability -0.387.
After knock-down of POU3F4 (POU class 3 homeobox 4) #1, the screen gave log2 vehicle/camptothecin viability -0.119.
Against POU3F4 (POU class 3 homeobox 4) #2 the deposit lists log2 vehicle/camptothecin viability -0.219.
Depletion of POU3F4 (POU class 3 homeobox 4) #3 came out at: log2 vehicle/camptothecin viability 0.111.
POU3F4 (POU class 3 homeobox 4) #4 showed log2 vehicle/camptothecin viability 0.296.
With knock-down of AMH (anti-Mullerian hormone) #1 the results were log2 vehicle/camptothecin viability -0.0373.
Depletion of AMH (anti-Mullerian hormone) #2 came out at: log2 vehicle/camptothecin viability -0.354.
For AMH (anti-Mullerian hormone) #3, the entry reads log2 vehicle/camptothecin viability -0.401.
Knock-down of LDLR (low density lipoprotein receptor) #1 gave: log2 vehicle/camptothecin viability -0.0937.
For LDLR (low density lipoprotein receptor) #2 the deposit lists log2 vehicle/camptothecin viability -0.53.
LDLR (low density lipoprotein receptor) #3 gave log2 vehicle/camptothecin viability -0.689.
Silencing of LDLR (low density lipoprotein receptor) #4 gave: log2 vehicle/camptothecin viability -0.307.

A stretch from the list above, for reference:
VPS41 (VPS41 subunit of HOPS complex) #4 — log2 vehicle/camptothecin viability: -0.387
POU3F4 (POU class 3 homeobox 4) #1 — log2 vehicle/camptothecin viability: -0.119
POU3F4 (POU class 3 homeobox 4) #2 — log2 vehicle/camptothecin viability: -0.219
POU3F4 (POU class 3 homeobox 4) #3 — log2 vehicle/camptothecin viability: 0.111
POU3F4 (POU class 3 homeobox 4) #4 — log2 vehicle/camptothecin viability: 0.296
AMH (anti-Mullerian hormone) #1 — log2 vehicle/camptothecin viability: -0.0373
AMH (anti-Mullerian hormone) #2 — log2 vehicle/camptothecin viability: -0.354
AMH (anti-Mullerian hormone) #3 — log2 vehicle/camptothecin viability: -0.401

The listing continues:
Against AKR1C3 (aldo-keto reductase family 1 member C3) #1, the values are log2 vehicle/camptothecin viability 0.0241.
Silencing of AKR1C3 (aldo-keto reductase family 1 member C3) #2 resulted in: log2 vehicle/camptothecin viability -0.181.
After knock-down of AKR1C3 (aldo-keto reductase family 1 member C3) #3, the record shows log2 vehicle/camptothecin viability -0.0624.
Depletion of AKR1C3 (aldo-keto reductase family 1 member C3) #4 resulted in: log2 vehicle/camptothecin viability -0.229.
IRF2BP1 (interferon regulatory factor 2 binding protein 1) #1 gave log2 vehicle/camptothecin viability -0.259.
With knock-down of IRF2BP1 (interferon regulatory factor 2 binding protein 1) #2, the screen gave log2 vehicle/camptothecin viability 0.425.
Against IRF2BP1 (interferon regulatory factor 2 binding protein 1) #3, the entry reads log2 vehicle/camptothecin viability -0.0559.
Knock-down of DCHS2 (dachsous cadherin-related 2) #1 came out at: log2 vehicle/camptothecin viability -0.0107.
Knock-down of DCHS2 (dachsous cadherin-related 2) #2 came out at: log2 vehicle/camptothecin viability 0.298.
After knock-down of DCHS2 (dachsous cadherin-related 2) #3, the screen gave log2 vehicle/camptothecin viability -0.813.
DCHS2 (dachsous cadherin-related 2) #4 showed log2 vehicle/camptothecin viability 0.00097.
With knock-down of SENP1 (SUMO specific peptidase 1) #1, the screen gave log2 vehicle/camptothecin viability 0.0197.
SENP1 (SUMO specific peptidase 1) #2 showed log2 vehicle/camptothecin viability 0.617.
Silencing of SENP1 (SUMO specific peptidase 1) #3 came out at: log2 vehicle/camptothecin viability -0.433.
For SENP1 (SUMO specific peptidase 1) #4 the deposit lists log2 vehicle/camptothecin viability 0.318.
